PubChem BioAssay AID652272 – Drosophila RNAi Screening Center | 2013
The deposit covers about 21,000 reagents; below is a random part of those with a known target gene and a result. Over the whole deposit, 503 (2.4%) got an active call. 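Raw plate light values, not normalised; calls rest on replicate z-scores that were not deposited; hits include reporter decreases as well as increases.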 A number with no mark means an inactive call. The numbers tell different reagents against one gene apart. Not given: the amount of reagent, the time to read-out.

- Test: 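Genes whose knock-down decreases or increases Hedgehog reporter output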 (primary screen)
- Cell system: Drosophila clone 8 (Cl8) cells
- Knock-down reagent: long dsRNA against Drosophila genes
- Detection: 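Firefly light from a Hedgehog-responsive ptc promoter reporter and Renilla reference light, both read on a plate reader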
- Reading the numbers: firefly Hh reporter signal: higher = more ptc reporter light; Renilla reference signal: higher = more Renilla control light
- Hit rule: 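Hit when the z-score averaged over two replicates is under -2 or over +3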
- Calls: active = hit: reporter lowered or raised; inactive = not a hit

target | reagent no. | firefly Hh reporter signal, replicate 1 | firefly Hh reporter signal, replicate 2 | firefly Hh reporter signal, replicate 3 | Renilla reference signal, replicate 1 | Renilla reference signal, replicate 2
Ugt36E1 | 1 | 32155 | 52101 | – | 1353 | 2244
nrv2 | 1 | 4.31e5 | 1.22e5 | – | 21360 | 5237
nrv2 | 2 | 86132 | 80493 | – | 4220 | 3456
Oamb | 1 | 68345 | 1.75e5 | – | 14093 | 3219
Oamb | 2 | 5.23e5 | 86131 | – | 35248 | 7234
Oamb | 3 | 6.32e5 | 1.44e5 | – | 38953 | 11978
Tbce | 1 | 96477 | 89405 | – | 3668 | 3434
Uxs | 1 | 94629 | 49077 | – | 3404 | 1754
CG6700 | 1 | 76825 | 71265 | – | 2731 | 2780
CG7512 | 1 | 34576 | 40244 | 51584 | 3115 | 2841
Dh44 | 1 | 2.03e5 | – | – | 4156 | –
Dh44 | 2 | 78240 | 95264 | – | 2624 | 2742
Trim9 | 1 | 86506 | 52743 | – | 2164 | 4805
CG9953 | 1 | 37255 | 49292 | – | 203 | 3085

The list goes on, starting with the last 2 of the part before.
target | reagent no. | firefly Hh reporter signal, replicate 1 | firefly Hh reporter signal, replicate 2 | firefly Hh reporter signal, replicate 3 | Renilla reference signal, replicate 1 | Renilla reference signal, replicate 2
Trim9 | 1 | 86506 | 52743 | – | 2164 | 4805
CG9953 | 1 | 37255 | 49292 | – | 203 | 3085
KCNQ | 1 | 91398 | 54454 | – | 2677 | 5405
KCNQ | 2 | 92377 | 50321 | – | 2585 | 4052
cora | 1 | 71046 | 44123 | – | 1213 | 3128
CG6843 | 1 | 1.05e5 | 1.66e5 | – | 3332 | 4616
Hen1 | 1 | 91522 | 83863 | – | 3837 | 3270
Hen1 | 2 | 74720 | 42314 | – | 2000 | 3621
CG2656 | 1 | 1.28e5 | 98445 | – | 4842 | 3225
CG5787 | 1 | 95762 | 48385 | – | 3547 | 2130
CR16735 | 1 | 1.01e5 | 1.15e5 | – | 4128 | 3376
CtsF | 1 | 1.60e5 | – | – | 3841 | –
CtsF | 2 | 1.19e5 | 1.11e5 | – | 5053 | 4315
CtsF | 3 | 71979 | 1.10e5 | – | 3077 | 3157
trus | 1 | 73435 | 1.12e5 | – | 2656 | 2805
Obp19c | 1 | 52044 | 1.40e5 | – | 1109 | 8076
Dcr-2 | 1 | 1.29e5 | 71719 | – | 3469 | 4901
kumpel | 1 | 6.39e5 | 93044 | – | 32757 | 2864
kumpel | 2 | 4.95e5 | 96464 | – | 26400 | 2935
kumpel | 3 | 8.19e5 | 1.61e5 | – | 39587 | 4802
kumpel | 4 | 5.62e5 | 1.22e5 | – | 27682 | 10100
kumpel | 5 | 5.08e5 | 1.00e5 | – | 28940 | 8256
kumpel | 6 | 5.87e5 | 1.21e5 | – | 29845 | 10448
CG6654 | 1 | 1.31e5 | 97541 | – | 5000 | 3396
ZC3H3 | 1 | 3399 (active) | 17248 | – | 874 | 1671
RpL5 | 1 | 27161 (active) | 17272 | – | 1826 | 3117
CG32221 | 1 | 2.49e5 | – | – | 5001 | –
